In US20040106134A1 (Regeneron, published 2004):
No constants are given. Whether binding was seen depends on the method and setting. In cells and extracts the contact can be indirect. Some entries that bind do so weakly or less than the wild type.

Biological target: T1, human BMP-4 (human) (UniProt P12644)
T1 sequence (looked up): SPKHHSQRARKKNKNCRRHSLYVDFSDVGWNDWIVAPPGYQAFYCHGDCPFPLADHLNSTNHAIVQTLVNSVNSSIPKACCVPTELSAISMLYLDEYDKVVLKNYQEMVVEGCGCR
Assay: competition with DCR5-myc3 for binding to hBMP4, co-immunoprecipitation with 9E10 beads

B1: Human DCR5 expressed in E. Coli, purified and refolded (protein)
chain: MSRKNRPAGAIPSPYKDGSSNNSERWQHQIKEVLASSQEALVVTERKYLKSDWCKTQPLRQTVSEEGCRSRTILNRFCYGQCNSFYIPRHVKKEEESFQSCAFCKPQRVTSVLVELECPGLDPPFRLKKIQKVKQCRCMSVNLSDSDKQ
Q: B1 was tested. Which binding did it give?
A: binds
